{"source": "patent US5874410A", "about": "“Arg-Gly-Asp-Asp-Ser and pharmaceutical compositions and uses thereof” (Vevy Europe S.p.A., priority 1996, dated 1999)", "key": {"skin wound": {"system": "skin wound", "test": "Treatment of a skin wound (healing of a full-thickness skin excision after 30 days of cream pre-treatment)", "assay_type": "in vivo, nude mouse", "settings": "summary in words of Example 1"}, "dermatitis from xylol": {"system": "dermatitis from xylol", "test": "Treatment of dermatitis from xylol (duration of therapy until complete healing)", "assay_type": "in vivo, nude mouse", "settings": "summary in words of Example 2"}, "[1]": {"system": "skin (cheek, back of hand, knee)", "test": "Blinded left/right cream comparison in women volunteers, skin assessed by three dermatologists", "assay_type": "in vivo, human", "settings": "summary in words of Example 3"}}, "note": "At least one peptide structure holds a part that was inferred or is arguable (an end, a ring closure or a residue). Ends that are not written are not given here."}
{"substance": "RGDDS [pentapeptide according to the invention, Arg-Gly-Asp-Asp-Ser]", "values": [{"measurement": "dermatotrophic effect (capacity of the skin to repair a solution of continuity)", "setting": "skin wound", "result": "significant dermatotrophic effect"}, {"measurement": "dermatotrophic effect (recovery of normal hydration and elasticity after a harmful agent)", "setting": "dermatitis from xylol", "result": "significant dermatotrophic effect"}, {"measurement": "dermatocosmetic activity", "setting": "[1]", "result": "marked dermatocosmetic activity"}]}
